Laboratory results published in publication PMC8215223.
Positions count from the first letter of the chain named. No constants are given. Whether binding was seen depends on the method and setting. In cells and extracts the contact can be indirect. Some binding calls cover weakened binding; strength is not graded here. Sequences can lack the tags named with a protein.

Experiments:
Assay in all cases: co-IP; HeLa extracts in Buffer H (sonicated, 15,000 x g); 2 hr at 4°C with A/G-agarose beads pre-linked with antibody; washed with coIP-washing buffer; Western blot; cells left non-treated, treated with 100 ng/mL nocodazole for 16 hr, or released from a thymidine block
GFP-HOOK3 S707E (human) = target: T1, GFP-HOOK3 S707E (human) (UniProt Q86VS8)
T1 sequence: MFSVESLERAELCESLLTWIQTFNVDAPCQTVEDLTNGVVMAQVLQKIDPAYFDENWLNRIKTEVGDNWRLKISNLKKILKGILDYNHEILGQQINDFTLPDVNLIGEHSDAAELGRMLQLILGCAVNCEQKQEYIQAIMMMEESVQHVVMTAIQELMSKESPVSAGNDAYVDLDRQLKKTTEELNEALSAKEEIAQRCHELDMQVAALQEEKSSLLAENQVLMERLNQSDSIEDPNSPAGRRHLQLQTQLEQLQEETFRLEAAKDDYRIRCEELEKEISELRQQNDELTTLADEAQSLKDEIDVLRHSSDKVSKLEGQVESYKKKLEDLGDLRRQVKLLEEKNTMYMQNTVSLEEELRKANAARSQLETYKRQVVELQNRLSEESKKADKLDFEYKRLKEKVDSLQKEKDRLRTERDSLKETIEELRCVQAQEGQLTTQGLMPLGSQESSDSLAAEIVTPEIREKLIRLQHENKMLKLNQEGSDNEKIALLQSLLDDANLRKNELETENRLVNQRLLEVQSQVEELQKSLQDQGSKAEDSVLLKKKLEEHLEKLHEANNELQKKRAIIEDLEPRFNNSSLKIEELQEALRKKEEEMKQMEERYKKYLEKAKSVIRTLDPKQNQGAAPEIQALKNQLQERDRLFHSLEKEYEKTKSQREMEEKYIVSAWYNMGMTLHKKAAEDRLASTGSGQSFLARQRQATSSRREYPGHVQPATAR

GFP-HOOK3 S707A (human) = target: T2, GFP-HOOK3 S707A (human) (UniProt Q86VS8)
T2 sequence: T1 sequence with E707A

[1] = target: T3, GFP-HOOK3 2SA (S238,707A) (human) (UniProt Q86VS8)
T3 sequence: T1 sequence with S238A, E707A

Measured: binding

B1: AuroraA (endogenous) (enzyme, UniProt O14965 1-403)
chain: MDRSKENCISGPVKATAPVGGPKRVLVTQQFPCQNPLPVNSGQAQRVLCPSNSSQRIPLQAQKLVSSHKPVQNQKQKQLQATSVPHPVSRPLNNTQKSKQPLPSAPENNPEEELASKQKNEESKKRQWALEDFEIGRPLGKGKFGNVYLAREKQSKFILALKVLFKAQLEKAGVEHQLRREVEIQSHLRHPNILRLYGYFHDATRVYLILEYAPLGTVYRELQKLSKFDEQRTATYITELANALSYCHSKRVIHRDIKPENLLLGSAGELKIADFGWSVHAPSSRRTTLCGTLDYLPPEMIEGRMHDEKVDLWSLGVLCYEFLVGKPPFEANTYQETYKRISRVEFTFPDFVTEGARDLISRLLKHNPSQRPMLREVLEHPWITANSSKPSNCQNKESASKQS
binds: all assays above
